From PubChem BioAssay AID1671190 (National Center for Advancing Translational Sciences (NCATS), 2021)
“And” between values parts separate entries of the source, which are not always exact repeats. Equal values may be shown once. The campaign covered roughly 580,000 compounds. About 6,100 (1.1%) were called active. This list was built around the results that the source calls inconclusive (neither active nor inactive); the mix of calls is not that of the screen. Calls follow the shape of the dose curve; as a rule, active = well fitted inhibition curve with a large enough effect; inconclusive = small, poorly fitted or top-dose-only effect, or another doubt; inactive = no such curve, though single readings can be large or run the other way. Where the call is inconclusive, the potency comes from a doubtful curve fit.

The chains behind the UniProt entries cited, without tags or fusion partners.
UniProt P18054, whole entry, looked up: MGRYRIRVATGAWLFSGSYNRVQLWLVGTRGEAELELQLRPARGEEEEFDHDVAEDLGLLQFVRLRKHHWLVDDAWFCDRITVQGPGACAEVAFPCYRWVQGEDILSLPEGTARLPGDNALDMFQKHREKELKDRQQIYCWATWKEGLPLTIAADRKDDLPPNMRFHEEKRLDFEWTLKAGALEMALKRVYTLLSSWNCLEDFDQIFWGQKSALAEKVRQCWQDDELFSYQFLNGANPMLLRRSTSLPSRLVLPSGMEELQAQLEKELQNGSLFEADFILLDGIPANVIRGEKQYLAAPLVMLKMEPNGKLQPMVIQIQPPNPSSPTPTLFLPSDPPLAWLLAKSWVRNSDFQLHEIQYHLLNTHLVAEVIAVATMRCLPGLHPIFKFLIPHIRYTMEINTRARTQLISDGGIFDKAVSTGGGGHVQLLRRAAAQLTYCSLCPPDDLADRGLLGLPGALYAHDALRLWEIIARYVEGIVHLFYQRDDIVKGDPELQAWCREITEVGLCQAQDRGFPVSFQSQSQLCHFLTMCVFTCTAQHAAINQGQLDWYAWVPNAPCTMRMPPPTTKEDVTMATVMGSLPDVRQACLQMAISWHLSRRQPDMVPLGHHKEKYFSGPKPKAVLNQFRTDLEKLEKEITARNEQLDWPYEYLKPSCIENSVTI

Molecular target: Polyunsaturated fatty acid lipoxygenase ALOX12 (Homo sapiens) (UniProt P18054)
Assay: Primary qHTS assay for inhibitors of human arachidonate 12S-lipoxygenase (ALOX12): Round 2
Details: purified 12hLO, xylenol orange hydroperoxide absorbance; activity change, negative = inhibition: at 108 µM (top of the series) unless noted
Method in brief: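 Hydroperoxide product was detected by ferrous iron/xylenol orange as the 573 to 405 nm absorbance ratio. Arachidonic acid at 40 uM (final) was turned over for 30 min at room temperature by 150 nM human 12hLO, pH 7.0 Hepes buffer, after 15 min compound preincubation.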
% is scaled to controls: 0 for no effect and ±100 for the full control effect; potency is read from the fitted curve at half-maximal effect.

Row | SMILES | Potency | activity change, negative = inhibition
1 | Cc1cc(OCC(=O)Nc2cccc(S(=O)(=O)N3CCCC3)c2)ccc1Cl | inconclusive: 100 µM [inhibitor, partial curve, poor fit] | –
2 | Cc1ccc(Cl)c2c1NC(=O)C2(O)CC(=O)c1ccccc1O (configuration not stated) | inactive | –
3 | COc1ccc(C(=O)Nc2ccc3c(c2)CCCN3C(=O)c2cccs2)c(OC)c1 | inconclusive: 44.7 µM [inhibitor, partial curve] | –
4 | CCCCNc1nc2c(c(=O)[nH]c(=O)n2C)n1Cc1cccc(C)c1 | inconclusive: 5.62 µM [inhibitor, partial curve, poor fit] | –
5 | O=C(O)C(C(O)c1ccc([N+](=O)[O-])cc1)[n+]1ccccc1 (configuration not stated) | inconclusive: 89.1 µM [inhibitor, single point] | –
6 | O=S(=O)(c1ccccc1S(=O)(=O)N1CCCCC1)N1CCCCC1 | inactive | –
7 | CCCCN(C)C(=O)C1CCN(Cc2ccccc2)CC1 | inconclusive: 50.1 µM [inhibitor, partial curve, poor fit] | –
8 | O=C(Nc1c(F)cccc1F)N1CCOc2ccc(CN3CCc4ccccc4C3)cc2C1 | inactive | –
9 | Cc1cccc2cc(COC(=O)C(C)(C)C)c(=O)[nH]c12 | inconclusive: 17.8 µM [inhibitor, partial curve, poor fit] | –
10 | O=C(O)c1ccc(-c2ccc(Cc3ccc(-c4ccc(C(=O)O)cc4)o3)o2)cc1 | inconclusive: 31.6 µM [inhibitor, partial curve, poor fit] | –
11 | COCCNC(=O)c1cc2c(-c3ccccc3F)nn(C)c2s1 | inconclusive: 126 µM [inhibitor, partial curve, poor fit] | –
12 | O=C(Cn1c(=O)n(Cc2ccc3c(c2)OCO3)c(=O)c2oc3ccccc3c21)Nc1ccccc1F | inconclusive: 126 µM [inhibitor, partial curve, poor fit] | –
13 | Cc1ccc2nc(-c3ccccn3)c(NC3CCCC3)n2c1 | inactive | –
14 | Cn1nnc(NC(=S)NC(=O)c2cccc3c(Br)cccc23)n1 | inconclusive: 1.58 µM [inhibitor, full curve] | –
15 | COc1cc(NC(=O)c2ccc3c(=O)n(Cc4ccco4)c(=S)[nH]c3c2)cc(OC)c1OC | inconclusive: 50.1 µM [inhibitor, partial curve, poor fit] | –
16 | CCn1c(COc2cccc3cccnc23)nnc1SCC(=O)O | inactive and inconclusive: 50.1 µM [inhibitor, partial curve, poor fit] | –
17 | CCOC(=O)c1c(NC(=O)CN2CCOCC2)sc(C(=O)NC)c1C | inconclusive: 0.251 µM [inhibitor, single point] | –
18 | COCCO[C@H]1C(=O)N(C2CCN(S(=O)(=O)C(C)C)CC2)[C@H]1c1ccncc1 | inactive | –
19 | Cc1ccc(C(=O)N2CC(Oc3ccc(F)c(C)c3)C2)cc1 | inconclusive: 112 µM [inhibitor, single point] | –
20 | Cn1cccc1/C=N/NC(=O)c1ccncc1 | inactive | –
21 | Cc1cc(C(=O)N2CCC(Oc3cccnc3)C2)n(C)n1 (configuration not stated) | inactive | –
22 | COCC(=O)N1CCN(C(=O)CSCC(=O)O)C[C@H]1C(=O)N[C@H]1CCCNC1=O | inconclusive: 28.2 µM [inhibitor, full curve] | –
23 | Cc1ccc(/C=C/c2onc(C)c2S(=O)(=O)N2CCC(C(=O)N3CCN(c4ccccc4F)CC3)CC2)cc1 | inactive | –

Random excerpt: four entries already listed
Row | SMILES | Potency | activity change, negative = inhibition
6 | O=S(=O)(c1ccccc1S(=O)(=O)N1CCCCC1)N1CCCCC1 | inactive | –
10 | O=C(O)c1ccc(-c2ccc(Cc3ccc(-c4ccc(C(=O)O)cc4)o3)o2)cc1 | inconclusive: 31.6 µM [inhibitor, partial curve, poor fit] | –
4 | CCCCNc1nc2c(c(=O)[nH]c(=O)n2C)n1Cc1cccc(C)c1 | inconclusive: 5.62 µM [inhibitor, partial curve, poor fit] | –
1 | Cc1cc(OCC(=O)Nc2cccc(S(=O)(=O)N3CCCC3)c2)ccc1Cl | inconclusive: 100 µM [inhibitor, partial curve, poor fit] | –

Next part.

Row | SMILES | Potency | activity change, negative = inhibition
24 | O=C(O)CN1C(=O)/C(=C\c2cc(Br)ccc2OCc2ccc([N+](=O)[O-])cc2)SC1=S | active: 8.91 µM | –
25 | C[C@H](NC(=O)C(=O)Nc1ccc2cc[nH]c2c1)c1ccccc1 | inconclusive: 50.1 µM [inhibitor, partial curve, poor fit] | –
26 | Cn1c(CC(=O)Nc2ccc(F)cc2)nnc1SCC(=O)c1ccc(C#N)cc1 | inconclusive: 89.1 µM [inhibitor, single point] | –
27 | COc1cc(Br)c(/C=C(/C#N)C(=O)C(C)(C)C)cc1OC | inconclusive: 39.8 µM [inhibitor, partial curve, poor fit] | –
28 | COCCCNC(=O)Cc1c(C)c2ccc(OC(C)=O)c(OC(C)=O)c2oc1=O | inconclusive: 0.794 µM [inhibitor, full curve, poor fit] | –
29 | COc1ccccc1C(C1=C(O)CC(C)(C)CC1=O)C1=C(O)CC(C)(C)CC1=O | inconclusive: 79.4 µM [inhibitor, partial curve, poor fit] | –
30 | COc1ccc(-n2ncc3c(NCc4ccco4)ncnc32)cc1 | active: 31.6 µM | –
31 | Cc1ccccc1Cc1c(C)nc2c(C(=O)NCc3ccco3)cnn2c1C | inconclusive: 50.1 µM [inhibitor, partial curve, poor fit] | –
32 | Cc1cnc(N)c2c(=O)oc3ccccc3c12 | inconclusive: 112 µM [inhibitor, single point] | –
33 | O=C(NNS(=O)(=O)c1ccccc1)c1csc(-c2cccnc2)n1 | inactive | –
34 | Cc1cccc(NC(=S)NCCc2ccc(C(F)(F)F)cc2)c1 | inconclusive: 20 µM [inhibitor, full curve, poor fit] | –
35 | COc1cccc(NC(=O)CSc2nc3ccccc3o2)c1 | inconclusive: 0.224 µM [inhibitor, full curve, poor fit] | –
36 | CNC(=O)c1cccc2cccc(Sc3ccccc3C(=O)O)c12 | inconclusive: 39.8 µM [inhibitor, single point] | –
37 | CC(OC(=O)c1cc(=O)c2cc(Cl)ccc2o1)C(=O)N(C)c1ccccc1 (configuration not stated) | inconclusive: 141 µM [inhibitor, single point] | –
38 | OC(COc1ccccc1Br)CN1CCNCC1 (configuration not stated) | inconclusive: 6.31 µM [inhibitor, full curve] | –
39 | O=C(NCCc1ccccc1Cl)c1ccc2c(=O)n(-c3ccccc3)c(=O)[nH]c2c1 | inconclusive: 126 µM [inhibitor, partial curve, poor fit] | –
40 | COC(=O)C1=C(C)NC(=O)NC1c1ccsc1 (configuration not stated) | inconclusive: 100 µM [inhibitor, partial curve, poor fit] | –
41 | CCOc1ccccc1CN1CCc2nc(Nc3ccc4c(c3)OCCO4)ncc2C1 | inconclusive: 100 µM [inhibitor, partial curve, poor fit] | –
42 | CN(C)C(=S)NC(C)(C)C | inactive | –
43 | COc1ccc(OCCCn2cccc2/C=C2/C(=N)N3OC(C)=CC3=NC2=O)cc1 | – | inconclusive: -30.7% [inhibitor]
44 | Cc1ccc(/C=C2\SC(=S)N(c3cccnc3)C2=O)o1 | inactive | –
45 | COc1cc(Nc2ccccc2Cl)c([N+](=O)[O-])nc1[N+](=O)[O-] | inactive | –
46 | COc1ccc(-c2noc(CCC(=O)Nc3cccnc3)n2)cc1OC | inconclusive: 126 µM [inhibitor, single point] | –

Row | SMILES | Potency | activity change, negative = inhibition
47 | Cc1ccc(-c2cc(NC(=O)CCl)n(-c3ccccc3)n2)cc1 | inconclusive: 28.2 µM [inhibitor, single point] | –
48 | Cc1nc(SC(C)C)[nH]c(=O)c1Cc1ccccc1 | inconclusive: 63.1 µM [inhibitor, partial curve, poor fit] | –
49 | CCN1CCCC1=O | inconclusive: 2.51 µM [inhibitor, full curve, poor fit] | –
50 | Cn1c(COc2ccc(C(C)(C)C)cc2)n[nH]c1=S | active: 35.5 µM | –
51 | Cc1cc(Br)ccc1NC(=O)CN(C)C(=O)CCSc1ccc(F)cc1 | inconclusive: 100 µM [inhibitor, partial curve, poor fit] | –
52 | CCOC(=O)c1cc2c(=O)n3ccccc3nc2n(Cc2ccco2)c1=NC(=O)c1c(F)cccc1Cl | inconclusive: 112 µM [inhibitor, partial curve, poor fit] | –
53 | Cc1ccc(C(C(=O)NCC2CCCO2)N(C(=O)c2snc(C(N)=O)c2N)c2ccc(C(C)C)cc2)o1 (configuration not stated) | inconclusive: 141 µM [inhibitor, partial curve, poor fit] | –
54 | CC(=O)c1ccc(NC(=O)NC(=O)c2ccc(Cl)cc2)cc1 | inactive | –
55 | Cc1cc2c(NCCc3ccccc3)ncnc2s1 | inconclusive: 22.4 µM [inhibitor, full curve, poor fit] | –
56 | CC(Sc1nc2cc(S(=O)(=O)N3CCCCC3)ccc2o1)C(=O)N1CCc2ccccc21 (configuration not stated) | inactive | –
57 | CC1Cc2ccccc2N1S(=O)(=O)c1cccc(C(=O)N2CC(=O)Nc3ccccc32)c1 (configuration not stated) | inconclusive: 100 µM [inhibitor, partial curve, poor fit] | –
58 | CCc1ccc(Nc2n[n+](-c3ccccc3)c(-c3ccc(SC)cc3)s2)cc1 | inconclusive: 44.7 µM [inhibitor, partial curve] | –
59 | COc1ccc2c(C)cc(=S)[nH]c2c1 | inconclusive: 50.1 µM [inhibitor, partial curve, poor fit] | –
60 | Cc1ccc(C(C)C)cc1OCC(=O)NCc1ccc(Cn2cccn2)cc1 | inactive | –
61 | O=C(O)CCCNS(=O)(=O)c1ccc(NCc2ccccc2)c(C(=O)O)c1 | inactive | –
62 | COCCCNC(=O)C[C@H]1C[C@H](C(=O)N2CCCCC2)[C@@]2(CCc3ccccc3)c3[nH]c4ccc(Cl)cc4c3CCN2C1=O | inactive | –
63 | CC1(C)CC(=O)C2=C(C1)OC(N)=C(C#N)C2c1ccc2c(c1)OCO2 (configuration not stated) | – | inconclusive: -32.7% [inhibitor]
64 | O=C(NCCc1ccccc1)c1ccccc1F | inactive | –
65 | CNC(=O)C(Sc1nc(C)nc2c1oc1ccccc12)C(C)=O (configuration not stated) | inconclusive: 2.24 µM [inhibitor, full curve, poor fit] | –
66 | CCOc1ccc(S(=O)(=O)NCc2cccnc2)cc1NC(=O)c1ccccc1 | inactive | –
67 | NC(=O)N\N=C/C=C/C=C/c1ccc(F)cc1 | inconclusive: 112 µM [inhibitor, partial curve, poor fit] | –

Record cards (already shown).
CNC(=O)c1cccc2cccc(Sc3ccccc3C(=O)O)c12 as listed: Potency: inconclusive: 39.8 µM [inhibitor, single point]
CCN1CCCC1=O as listed: Potency: inconclusive: 2.51 µM [inhibitor, full curve, poor fit]
